The text below walks through data of article PMC3841102, “Activation of Smurf E3 Ligase Promoted by Smoothened Regulates Hedgehog Signaling through Targeting Patched Turnover” (PLoS Biology, 2013).

Sequences of proteins named here, by UniProt entry; tags and fusion partners are left off. A change or cut given only in a name is not applied to a line headed by its entry.
UniProt P18502: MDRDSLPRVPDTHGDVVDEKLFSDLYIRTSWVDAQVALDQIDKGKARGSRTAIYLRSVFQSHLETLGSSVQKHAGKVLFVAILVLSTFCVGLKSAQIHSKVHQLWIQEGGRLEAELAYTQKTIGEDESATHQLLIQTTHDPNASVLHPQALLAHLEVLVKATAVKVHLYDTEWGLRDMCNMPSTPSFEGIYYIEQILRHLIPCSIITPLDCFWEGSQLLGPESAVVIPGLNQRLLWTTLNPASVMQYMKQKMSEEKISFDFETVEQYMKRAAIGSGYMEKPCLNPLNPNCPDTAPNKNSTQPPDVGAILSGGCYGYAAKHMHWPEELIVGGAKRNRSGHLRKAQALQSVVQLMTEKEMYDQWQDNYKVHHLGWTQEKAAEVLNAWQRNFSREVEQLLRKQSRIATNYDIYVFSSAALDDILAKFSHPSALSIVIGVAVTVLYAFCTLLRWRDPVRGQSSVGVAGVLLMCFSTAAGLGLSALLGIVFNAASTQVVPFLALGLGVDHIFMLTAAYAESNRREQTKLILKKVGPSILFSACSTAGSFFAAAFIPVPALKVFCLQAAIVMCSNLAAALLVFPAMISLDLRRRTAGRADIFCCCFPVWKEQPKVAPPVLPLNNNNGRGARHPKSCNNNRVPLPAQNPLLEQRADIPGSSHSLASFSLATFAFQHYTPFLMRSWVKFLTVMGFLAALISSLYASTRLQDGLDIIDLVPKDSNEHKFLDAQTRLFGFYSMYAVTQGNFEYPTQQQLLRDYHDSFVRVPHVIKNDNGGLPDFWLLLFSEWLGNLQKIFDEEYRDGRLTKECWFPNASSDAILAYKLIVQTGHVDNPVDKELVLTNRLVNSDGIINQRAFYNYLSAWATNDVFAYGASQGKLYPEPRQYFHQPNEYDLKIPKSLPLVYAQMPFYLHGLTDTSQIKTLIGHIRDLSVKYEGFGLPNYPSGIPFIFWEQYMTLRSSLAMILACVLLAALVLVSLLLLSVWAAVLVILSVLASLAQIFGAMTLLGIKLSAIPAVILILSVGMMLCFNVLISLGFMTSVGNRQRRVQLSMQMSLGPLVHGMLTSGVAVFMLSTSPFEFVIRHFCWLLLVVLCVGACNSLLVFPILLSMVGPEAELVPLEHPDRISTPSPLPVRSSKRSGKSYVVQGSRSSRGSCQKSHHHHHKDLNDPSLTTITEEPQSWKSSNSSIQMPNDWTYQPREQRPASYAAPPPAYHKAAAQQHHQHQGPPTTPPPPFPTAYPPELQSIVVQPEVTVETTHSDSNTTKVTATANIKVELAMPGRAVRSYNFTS

The target in this assay is GST:Flag:Ptc^CTD carrying PPAY mutations (PPAY-AAAA) (Drosophila) (UniProt P18502). The experiment in a line: pull-down; GST fusion protein loaded glutathione beads incubated with 200 ng purified His:Smurf; 50 mM Tris-Cl pH 8.0, 200 mM NaCl, 1 mM EDTA, 1% NP-40, 2% BSA, 10 mM DTT, 1 mM PMSF; 4°C, 1 h; Western blot; both purified.

These are yes or no findings as the source states them, for the method shown. Tags and fused reporters may be left off the sequences shown.

B1: His:Smurf protein (full length Drosophila Smurf) (enzyme, UniProt Q9V853 1-1061)
chain: MNKLDYPRRNGTHKVRITILCARNLARKDLFRLPDPFAKVQVDGTGQVYSTEISKSSLDPKWNAHYDLFLGIGDAITITVWNQRKIHKGSGFLGCVRIPAFNIQSLKGAGFQRLDLGKLSPDDDELVRGQIIISLLSKDGPSSGNPLAIVGPSGDVRGPSEDDSSEDSLPEGWEERRTDNGRVYYVNHATKSTQWDRPRQPGVVGSSHATSPQQRHNTHNGNSGDRQAPAGPTRSTTCTNLMNNGHRSRDLSVTASDERRHSTEILSSVGKENTSPTTPVSATTTPGKKTSSSNSSSAGGRTLEQRPTNEPATPTSSTTSASVRLHSNDNHVKTPKHQTNGHAPPESTPTSPTGQQNYVNGNAQNGSTSGNGSGQAAQPQSASNGWTQEDAATTTSPSTTTSPPRHSQSPPTPNISPPASVTPSANGNVHSPNANSTPAGSGGGSRSYTAATPGQRSQRRSSRQQGEESSTRRRSSRGTRNGGTSGGGGGGGSGQRYASAAIAAANQAARPFLDLPPGYEMRTTQQGQVYFYHIPTGVSTWHDPRIPRDFDTQHLTLDAIGPLPSGWEQRKTASGRVYFVDHNNRTTQFTDPRLSGSILQMIRRGTVPPTSAANAGTPAPPSATPATPSAAAAVPPQATPASNATPTTLTTTTNPPHRIVPDLPQGLLEGADLLPKYRRDLVGKLRALRTELQTMQPQSGHCRLEVSRNEIFEESYRLIMKMRAKDMRKRLMVKFKGEEGLDYGGVAREWLHLLSREMLNPQYGLFQYSRDDHYTLQINPDSGVNPDHLSYFHFVGRTLGIAVFHGHCLDGGFTTPFYKQLLNKPITLGDIEGVDPDLHRSLTWMLESNISGIIESTFSVENNSFGALVVHELKPGGASIPVTEENKREYVKLYVNYRFMRGIEQQFLALQKGFCELIPSHLLRPFDERELELVIGGISSIDVNDWRNNTRLKHCTNETTQVLWFWQVVESYSSEMRARLLQFVTGSSRVPLQGFRALQGSTGAVGPRLFTIHLTADVPTQNLPKAHTCFNRIDLPPYETYQLLCDKLTQAVEETCGFAVE
For B1, the binding entry is listed as “no binding (tested: 200 ng of purified His:Smurf)”.
